Experimental data: PubChem BioAssay AID686938 (Drosophila RNAi Screening Center, 2013)

Screen: 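Looking for CRAC channel components and the factors controlling them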 (primary screen)
Cells: Drosophila S2R+ cells
Reagent: long dsRNA against Drosophila genes, about 0.25 µg dsRNA per well, roughly 10,000 cells
Duration: 5 days of knock-down before the calcium assay
Challenge: thapsigargin (SERCA pump blocker) to empty calcium stores; entry signal taken 4 min after adding it
Detection: 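Per-well fluo-4 fluorescence in two replicates, unnormalised, measured in resting cells and 4 min after store depletion by the SERCA blocker thapsigargin; ratio of the two present in few wells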
Reading the numbers: calcium entry signal: higher = stronger calcium signal after store depletion; entry to resting ratio: higher = more calcium entry relative to resting level; resting calcium signal: higher = higher resting calcium signal
Hit rule: 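Hit if the duplicate-averaged plate z-score for entry over resting signal is under −3; wells with weak total dye signal (Fmax z < −2) or more than 5 off-targets removed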
Calls: active = strongly reduced calcium entry; inactive = no strong reduction
In all, the deposit lists about 23,000 reagents; shown is a random part of those with a known target gene and a result. Of all reagents, 75 (0.33%) got an active call. 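Raw plate signals without normalisation; calls rest on plate z-scores that were not deposited; ratio present for only 364 wells.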 Not given: the dose of the treatment.

| gene | dsRNA | calcium entry signal, replicate 1 (fluorescence units) | calcium entry signal, replicate 2 (fluorescence units) | entry to resting ratio | resting calcium signal, replicate 1 (fluorescence units) | resting calcium signal, replicate 2 (fluorescence units) | Call |
| --- | --- | --- | --- | --- | --- | --- | --- |
| CG13893 | DRSC08363 | 3.62e7 | 3.96e7 | – | 1.88e7 | 1.78e7 | inactive |
| Mekk1 | DRSC16302 | 2.07e7 | 2.26e7 | – | 1.06e7 | 9.71e6 | inactive |
| Mekk1 | DRSC16303 | 3.20e7 | 3.72e7 | – | 5.02e7 | 1.64e7 | inactive |
| CG5107 | DRSC15716 | 3.82e7 | 4.58e7 | – | 1.62e7 | 2.09e7 | inactive |
| CG8476 | DRSC16426 | 2.37e7 | 4.78e7 | – | 1.26e7 | 2.43e7 | inactive |
| HGTX | DRSC09319 | 3.16e7 | 3.48e7 | – | 1.47e7 | 1.54e7 | inactive |
| HGTX | DRSC11181 | 4.36e7 | 5.57e7 | – | 2.01e7 | 2.32e7 | inactive |
| e(y)2b | DRSC12556 | 5.10e7 | 3.13e7 | – | 2.35e7 | 1.53e7 | inactive |
| CG13110 | DRSC02208 | 3.78e7 | 3.32e7 | – | 1.78e7 | 1.63e7 | inactive |
| CG32262 | DRSC08165 | 3.93e7 | 3.18e7 | – | 2.66e7 | 1.33e7 | inactive |
| CG13609 | DRSC14612 | 5.72e7 | 3.50e7 | – | 2.34e7 | 1.42e7 | inactive |
| CG13609 | DRSC22843 | 2.82e7 | 4.63e7 | – | 1.45e7 | 2.00e7 | inactive |
| Ank2 | DRSC08894 | 4.64e7 | 4.38e7 | – | 2.48e7 | 2.10e7 | inactive |
| Ank2 | DRSC09666 | 3.29e7 | 4.07e7 | – | 1.47e7 | 1.88e7 | inactive |
| Ank2 | DRSC10338 | 3.24e7 | 4.21e7 | – | 1.58e7 | 1.95e7 | inactive |
| Ank2 | DRSC11278 | 3.24e7 | 4.60e7 | – | 1.55e7 | 2.16e7 | inactive |
| Ank2 | DRSC22922 | 3.61e7 | 3.66e7 | – | 1.82e7 | 1.68e7 | inactive |
| CG12608 | DRSC19472 | 2.60e7 | 2.79e7 | – | 1.27e7 | 1.50e7 | inactive |
| CG3704 | DRSC18174 | 4.43e7 | 6.60e7 | 1.9 | 2.29e7 | 2.64e7 | inactive |
| CG3704 | DRSC18645 | 4.05e7 | 6.00e7 | 1.9 | 2.09e7 | 2.36e7 | inactive |
| dgt4 | DRSC18659 | 2.85e7 | 3.99e7 | – | 1.50e7 | 2.03e7 | inactive |
| simj | DRSC10942 | 3.00e7 | 1.88e7 | – | 2.38e7 | 8.87e6 | inactive |
| Pof | DRSC04405 | 4.54e7 | – | – | 2.33e7 | – | inactive |
| ND-20 | DRSC20164 | 4.60e7 | 4.50e7 | – | 2.14e7 | 2.13e7 | inactive |
| twf | DRSC15466 | 2.92e7 | 3.00e7 | – | 1.40e7 | 1.45e7 | inactive |
| CG2871 | DRSC18230 | 3.06e7 | 5.02e7 | – | 1.49e7 | 2.30e7 | inactive |
| CG2871 | DRSC21719 | 2.78e7 | 3.01e7 | – | 1.42e7 | 1.38e7 | inactive |
| peo | DRSC05995 | 4.36e7 | 3.40e7 | – | 1.84e7 | 1.65e7 | inactive |
| CG16824 | DRSC02525 | 3.33e7 | 1.49e7 | – | 1.58e7 | 8.29e6 | inactive |
| CG2887 | DRSC18235 | 3.33e7 | 5.26e7 | – | 1.62e7 | 2.15e7 | inactive |
| Tsc1 | DRSC16890 | 3.37e7 | 3.74e7 | – | 1.72e7 | 1.73e7 | inactive |
| AP-1-2beta | DRSC19336 | 4.26e7 | 3.86e7 | – | 1.97e7 | 1.60e7 | inactive |
| CG15177 | DRSC12557 | 4.80e7 | 3.96e7 | – | 2.48e7 | 1.92e7 | inactive |
| neb | DRSC03577 | 4.39e7 | – | – | 2.17e7 | – | inactive |
| CG6163 | DRSC10595 | 2.65e7 | 4.82e7 | – | 1.31e7 | 1.99e7 | inactive |
| CG4009 | DRSC15536 | 3.32e7 | 5.50e7 | – | 1.60e7 | 5.30e7 | inactive |
| yellow-f | DRSC15348 | 2.03e7 | 2.80e7 | – | 1.05e7 | 4.70e7 | inactive |
| CG5245 | DRSC15750 | 4.49e7 | 3.68e7 | – | 2.20e7 | 1.89e7 | inactive |
| CG30491 | DRSC21472 | 2.84e7 | 2.84e7 | – | 1.51e7 | 1.35e7 | inactive |
| CG10927 | DRSC06014 | 3.85e7 | 3.91e7 | – | 1.70e7 | 1.89e7 | inactive |
